# Results published in the supplement of paper PMC7666118.
# By UniProt entry, the sequences of proteins in these tests, tags left out. Where a name states a change or a piece, a line headed by the entry shows the natural chain unless it says otherwise.
# UniProt Q9P2K2: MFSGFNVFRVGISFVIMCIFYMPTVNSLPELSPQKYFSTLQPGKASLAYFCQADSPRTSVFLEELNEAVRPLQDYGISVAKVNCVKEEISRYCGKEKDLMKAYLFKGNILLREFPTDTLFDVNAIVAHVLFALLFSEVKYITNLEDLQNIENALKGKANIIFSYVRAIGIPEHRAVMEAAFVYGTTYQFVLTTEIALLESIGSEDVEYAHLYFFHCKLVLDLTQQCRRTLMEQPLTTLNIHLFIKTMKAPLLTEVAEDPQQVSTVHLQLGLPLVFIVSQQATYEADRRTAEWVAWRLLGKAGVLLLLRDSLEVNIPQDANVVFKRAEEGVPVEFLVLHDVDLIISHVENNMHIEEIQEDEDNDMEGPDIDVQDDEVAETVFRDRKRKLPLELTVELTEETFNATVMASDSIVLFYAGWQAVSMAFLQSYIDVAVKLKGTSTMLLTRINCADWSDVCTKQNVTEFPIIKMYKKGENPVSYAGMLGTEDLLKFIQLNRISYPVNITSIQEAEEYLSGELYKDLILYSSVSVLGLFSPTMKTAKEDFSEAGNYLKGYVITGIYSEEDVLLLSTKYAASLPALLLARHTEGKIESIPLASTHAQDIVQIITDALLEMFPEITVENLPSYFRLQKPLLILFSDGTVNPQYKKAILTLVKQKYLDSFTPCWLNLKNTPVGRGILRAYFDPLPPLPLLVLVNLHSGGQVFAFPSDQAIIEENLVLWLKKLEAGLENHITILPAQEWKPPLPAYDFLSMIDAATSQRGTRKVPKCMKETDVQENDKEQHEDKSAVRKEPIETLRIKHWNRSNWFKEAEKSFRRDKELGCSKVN
# UniProt Q8IWB7: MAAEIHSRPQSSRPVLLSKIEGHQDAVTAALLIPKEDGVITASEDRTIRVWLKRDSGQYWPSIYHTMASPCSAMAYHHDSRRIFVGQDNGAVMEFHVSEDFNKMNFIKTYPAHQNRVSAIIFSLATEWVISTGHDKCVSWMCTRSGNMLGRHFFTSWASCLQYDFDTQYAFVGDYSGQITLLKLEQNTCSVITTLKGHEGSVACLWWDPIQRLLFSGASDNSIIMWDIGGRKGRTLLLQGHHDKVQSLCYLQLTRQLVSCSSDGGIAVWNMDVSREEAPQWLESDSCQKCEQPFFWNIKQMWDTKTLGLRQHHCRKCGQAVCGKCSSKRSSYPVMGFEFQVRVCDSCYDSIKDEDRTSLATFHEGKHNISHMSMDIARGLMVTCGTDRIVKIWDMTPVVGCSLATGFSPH
# UniProt Q9GZZ9, whole entry: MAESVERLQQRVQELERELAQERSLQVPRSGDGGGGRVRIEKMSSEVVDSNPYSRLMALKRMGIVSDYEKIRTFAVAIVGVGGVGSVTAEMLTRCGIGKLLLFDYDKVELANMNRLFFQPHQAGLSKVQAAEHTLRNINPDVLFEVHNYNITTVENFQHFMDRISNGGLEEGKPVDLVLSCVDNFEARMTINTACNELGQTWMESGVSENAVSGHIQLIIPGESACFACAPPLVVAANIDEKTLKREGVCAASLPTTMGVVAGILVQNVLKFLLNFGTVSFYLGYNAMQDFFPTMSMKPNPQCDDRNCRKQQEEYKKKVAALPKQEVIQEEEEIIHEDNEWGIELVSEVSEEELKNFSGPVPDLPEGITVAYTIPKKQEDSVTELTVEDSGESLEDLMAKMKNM
# UniProt Q9BTX7: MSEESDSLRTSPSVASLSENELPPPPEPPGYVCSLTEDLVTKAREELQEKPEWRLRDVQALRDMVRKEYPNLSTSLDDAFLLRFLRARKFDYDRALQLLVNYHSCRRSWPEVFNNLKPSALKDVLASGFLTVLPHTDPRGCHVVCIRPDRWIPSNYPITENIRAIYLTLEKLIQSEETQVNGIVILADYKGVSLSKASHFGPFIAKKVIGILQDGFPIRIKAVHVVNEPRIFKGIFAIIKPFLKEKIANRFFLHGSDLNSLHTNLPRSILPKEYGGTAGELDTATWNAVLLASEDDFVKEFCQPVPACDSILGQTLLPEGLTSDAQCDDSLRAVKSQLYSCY
# UniProt Q969M7: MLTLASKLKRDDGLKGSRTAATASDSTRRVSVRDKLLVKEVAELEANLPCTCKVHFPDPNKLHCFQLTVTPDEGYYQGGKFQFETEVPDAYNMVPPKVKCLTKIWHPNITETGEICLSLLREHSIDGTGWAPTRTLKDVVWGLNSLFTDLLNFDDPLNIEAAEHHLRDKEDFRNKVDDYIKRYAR
# UniProt Q9NV66: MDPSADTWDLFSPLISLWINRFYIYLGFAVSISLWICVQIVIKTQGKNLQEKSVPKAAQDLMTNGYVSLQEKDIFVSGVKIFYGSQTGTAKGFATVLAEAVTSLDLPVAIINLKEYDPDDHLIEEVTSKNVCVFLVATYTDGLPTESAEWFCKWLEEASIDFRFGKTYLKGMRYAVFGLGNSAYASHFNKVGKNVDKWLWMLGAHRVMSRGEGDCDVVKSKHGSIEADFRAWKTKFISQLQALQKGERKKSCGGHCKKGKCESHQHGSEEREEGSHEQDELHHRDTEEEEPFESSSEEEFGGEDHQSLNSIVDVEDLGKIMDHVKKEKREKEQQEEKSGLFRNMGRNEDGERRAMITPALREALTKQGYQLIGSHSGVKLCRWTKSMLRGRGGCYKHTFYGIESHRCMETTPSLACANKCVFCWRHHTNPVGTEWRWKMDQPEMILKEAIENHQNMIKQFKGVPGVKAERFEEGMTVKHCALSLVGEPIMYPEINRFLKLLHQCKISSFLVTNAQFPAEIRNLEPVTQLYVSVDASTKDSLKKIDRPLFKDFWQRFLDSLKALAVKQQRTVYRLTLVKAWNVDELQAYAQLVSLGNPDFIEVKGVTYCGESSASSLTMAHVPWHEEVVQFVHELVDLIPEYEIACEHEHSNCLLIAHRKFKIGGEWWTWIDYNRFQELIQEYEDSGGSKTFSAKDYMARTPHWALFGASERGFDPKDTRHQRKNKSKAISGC
# UniProt O75717: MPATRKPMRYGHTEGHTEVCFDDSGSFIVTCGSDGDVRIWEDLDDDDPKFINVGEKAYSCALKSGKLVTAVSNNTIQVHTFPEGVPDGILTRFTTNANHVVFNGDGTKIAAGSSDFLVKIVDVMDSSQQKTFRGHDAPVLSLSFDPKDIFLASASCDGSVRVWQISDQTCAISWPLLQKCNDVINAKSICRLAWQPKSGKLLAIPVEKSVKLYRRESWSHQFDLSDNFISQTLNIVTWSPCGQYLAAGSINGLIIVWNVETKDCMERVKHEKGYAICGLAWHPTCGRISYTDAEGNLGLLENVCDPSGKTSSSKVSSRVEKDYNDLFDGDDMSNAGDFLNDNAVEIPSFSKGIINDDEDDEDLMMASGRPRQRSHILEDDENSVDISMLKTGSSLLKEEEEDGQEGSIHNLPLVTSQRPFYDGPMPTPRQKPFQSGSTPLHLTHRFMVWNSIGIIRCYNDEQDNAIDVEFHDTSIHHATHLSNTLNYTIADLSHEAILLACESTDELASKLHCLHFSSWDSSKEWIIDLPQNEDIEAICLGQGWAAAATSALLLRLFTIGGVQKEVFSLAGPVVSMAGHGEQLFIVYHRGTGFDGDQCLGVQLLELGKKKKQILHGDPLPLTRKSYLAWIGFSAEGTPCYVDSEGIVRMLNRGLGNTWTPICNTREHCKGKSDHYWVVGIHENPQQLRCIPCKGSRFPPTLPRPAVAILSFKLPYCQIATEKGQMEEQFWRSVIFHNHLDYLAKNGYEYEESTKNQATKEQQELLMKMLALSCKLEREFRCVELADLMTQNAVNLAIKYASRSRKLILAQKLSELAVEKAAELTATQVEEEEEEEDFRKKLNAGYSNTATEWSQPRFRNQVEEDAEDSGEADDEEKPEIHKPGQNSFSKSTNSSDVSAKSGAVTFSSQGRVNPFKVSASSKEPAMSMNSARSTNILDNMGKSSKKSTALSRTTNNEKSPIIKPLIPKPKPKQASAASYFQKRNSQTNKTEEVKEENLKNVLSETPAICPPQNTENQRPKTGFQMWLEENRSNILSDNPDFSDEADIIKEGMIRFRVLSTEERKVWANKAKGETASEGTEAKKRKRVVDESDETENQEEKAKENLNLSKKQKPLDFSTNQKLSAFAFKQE
# UniProt Q93008, whole entry: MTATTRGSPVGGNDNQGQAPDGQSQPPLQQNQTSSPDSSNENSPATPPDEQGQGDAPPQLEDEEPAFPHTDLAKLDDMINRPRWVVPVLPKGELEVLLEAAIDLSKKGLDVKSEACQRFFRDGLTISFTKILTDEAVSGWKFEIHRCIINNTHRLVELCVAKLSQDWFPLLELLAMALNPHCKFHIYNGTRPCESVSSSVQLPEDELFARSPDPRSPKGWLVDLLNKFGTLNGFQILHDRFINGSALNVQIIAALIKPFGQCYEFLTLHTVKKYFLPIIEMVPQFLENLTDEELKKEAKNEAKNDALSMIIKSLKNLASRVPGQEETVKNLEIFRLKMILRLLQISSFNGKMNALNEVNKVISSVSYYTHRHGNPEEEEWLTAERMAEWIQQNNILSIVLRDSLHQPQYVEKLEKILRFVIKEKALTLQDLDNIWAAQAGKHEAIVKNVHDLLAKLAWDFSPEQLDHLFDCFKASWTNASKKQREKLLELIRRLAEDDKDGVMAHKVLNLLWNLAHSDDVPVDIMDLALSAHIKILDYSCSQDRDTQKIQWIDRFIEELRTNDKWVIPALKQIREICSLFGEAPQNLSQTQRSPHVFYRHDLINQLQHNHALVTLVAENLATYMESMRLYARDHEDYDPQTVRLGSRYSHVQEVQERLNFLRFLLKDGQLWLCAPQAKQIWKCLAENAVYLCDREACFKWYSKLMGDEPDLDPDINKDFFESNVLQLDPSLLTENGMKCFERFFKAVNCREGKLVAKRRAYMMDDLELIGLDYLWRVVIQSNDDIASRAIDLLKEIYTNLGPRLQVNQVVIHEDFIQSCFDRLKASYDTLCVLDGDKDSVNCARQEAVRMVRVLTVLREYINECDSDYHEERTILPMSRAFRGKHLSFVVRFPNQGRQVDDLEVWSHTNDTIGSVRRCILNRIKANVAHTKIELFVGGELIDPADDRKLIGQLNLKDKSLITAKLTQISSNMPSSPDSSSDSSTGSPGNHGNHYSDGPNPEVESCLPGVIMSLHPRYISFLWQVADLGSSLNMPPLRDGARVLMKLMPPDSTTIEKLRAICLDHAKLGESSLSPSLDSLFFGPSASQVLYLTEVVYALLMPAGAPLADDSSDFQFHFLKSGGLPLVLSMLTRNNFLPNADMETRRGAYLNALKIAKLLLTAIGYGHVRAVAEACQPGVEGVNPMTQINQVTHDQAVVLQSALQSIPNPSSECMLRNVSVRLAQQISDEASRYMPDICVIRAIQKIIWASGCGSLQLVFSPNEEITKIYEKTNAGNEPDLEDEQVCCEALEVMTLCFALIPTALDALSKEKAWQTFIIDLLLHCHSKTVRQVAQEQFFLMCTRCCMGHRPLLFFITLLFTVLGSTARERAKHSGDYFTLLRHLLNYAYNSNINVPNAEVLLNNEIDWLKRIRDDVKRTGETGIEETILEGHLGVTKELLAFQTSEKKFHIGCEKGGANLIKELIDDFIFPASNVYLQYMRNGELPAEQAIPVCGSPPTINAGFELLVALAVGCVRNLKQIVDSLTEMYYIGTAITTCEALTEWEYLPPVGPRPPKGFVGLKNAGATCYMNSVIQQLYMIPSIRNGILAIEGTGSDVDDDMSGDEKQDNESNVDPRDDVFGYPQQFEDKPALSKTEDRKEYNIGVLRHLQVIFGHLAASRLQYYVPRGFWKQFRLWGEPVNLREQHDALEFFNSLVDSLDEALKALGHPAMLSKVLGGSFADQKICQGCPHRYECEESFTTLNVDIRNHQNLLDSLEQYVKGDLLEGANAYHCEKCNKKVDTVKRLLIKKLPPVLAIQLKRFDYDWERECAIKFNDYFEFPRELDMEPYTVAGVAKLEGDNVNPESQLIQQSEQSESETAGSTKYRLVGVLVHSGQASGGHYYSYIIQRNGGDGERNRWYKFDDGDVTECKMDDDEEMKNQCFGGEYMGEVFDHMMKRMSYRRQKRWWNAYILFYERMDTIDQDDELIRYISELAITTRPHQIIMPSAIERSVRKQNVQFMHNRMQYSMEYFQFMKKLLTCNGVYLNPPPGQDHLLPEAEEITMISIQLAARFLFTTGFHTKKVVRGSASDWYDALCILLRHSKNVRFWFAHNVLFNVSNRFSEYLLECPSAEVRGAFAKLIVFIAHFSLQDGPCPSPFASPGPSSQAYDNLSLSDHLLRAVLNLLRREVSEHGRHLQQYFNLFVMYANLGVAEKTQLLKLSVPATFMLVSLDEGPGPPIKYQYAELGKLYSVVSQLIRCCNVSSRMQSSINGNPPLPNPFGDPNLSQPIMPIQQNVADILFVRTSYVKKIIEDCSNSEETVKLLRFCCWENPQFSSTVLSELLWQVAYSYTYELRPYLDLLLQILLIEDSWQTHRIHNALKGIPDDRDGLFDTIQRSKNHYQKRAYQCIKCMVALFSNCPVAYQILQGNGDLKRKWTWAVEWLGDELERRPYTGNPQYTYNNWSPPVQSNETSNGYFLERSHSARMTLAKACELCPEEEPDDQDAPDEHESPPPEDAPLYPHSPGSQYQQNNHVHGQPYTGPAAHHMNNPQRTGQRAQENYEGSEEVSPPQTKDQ
# This is one part of the list.
# Compound: COc1ccc(Cn2ccc3cc(C)c(C(=O)NO)cc32)cc1
# Assay: dose-dependent thermal stabilisation call (2D-TPP, DLPTP, 10% FDR) (binary (1 = stabilised)); higher = stabilised by the compound
# Conditions: system: HL-60 intact cells; concentration range 0.04-10 µM
# Description: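 2D thermal proteome profiling in intact HL-60 cells treated with BRD-3811 (0, 0.04, 0.29, 2, 10 uM) for 90 min at 37 C, then heated 3 min at one of 12 temperatures (42-63.9 C). Soluble protein was quantified by TMT10 MS. The value is the DLPTP call of the paper: dose-dependent thermal stabilisation over all temperatures at 10% FDR (F-test of a dose-response against a flat model); one experiment, one call per tested protein.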
row,Target,dose-dependent thermal stabilisation call
1,VAMP8 (UniProt Q9BV40),inactive: 0
2,VDAC1 (UniProt P21796),inactive: 0
3,TWISTNB (UniProt Q3B726),inactive: 0
4,TXNDC16 (UniProt Q9P2K2),inactive: 0
5,VAMP3 (UniProt Q15836),inactive: 0
6,UBE2V2 (UniProt Q15819),inactive: 0
7,USP15 (UniProt Q9Y4E8),inactive: 0
8,VPS8 (UniProt Q8N3P4),inactive: 0
9,USP24 (UniProt Q9UPU5),inactive: 0
10,UBE2L6 (UniProt O14933),inactive: 0
11,WASF2 (UniProt Q9Y6W5),inactive: 0
12,WDFY1 (UniProt Q8IWB7),inactive: 0
13,UBA5 (UniProt Q9GZZ9),inactive: 0
14,UBE2D1 (UniProt P51668),inactive: 0
15,TTPAL (UniProt Q9BTX7),inactive: 0
16,UBE2I (UniProt P63279),inactive: 0
17,UTP20 (UniProt O75691),inactive: 0
18,UNC13B (UniProt O14795),inactive: 0

row,Target,dose-dependent thermal stabilisation call
1,UBIAD1 (UniProt Q9Y5Z9),inactive: 0
2,UBE2F (UniProt Q969M7),inactive: 0
3,TTL (UniProt Q8NG68),inactive: 0
4,VAV1 (UniProt P15498),inactive: 0
5,UBE4A (UniProt Q14139),inactive: 0
6,VTI1B (UniProt Q9UEU0),inactive: 0
7,TYW1 (UniProt Q9NV66),inactive: 0
8,TYW3 (UniProt Q6IPR3),inactive: 0
9,VEZF1 (UniProt Q14119),inactive: 0
10,VPS4B (UniProt O75351),inactive: 0
11,UFC1 (UniProt Q9Y3C8),inactive: 0
12,UPF3A (UniProt Q9H1J1),inactive: 0
13,UQCRH (UniProt P07919),inactive: 0
14,WARS2 (UniProt Q9UGM6),inactive: 0
15,WDHD1 (UniProt O75717),inactive: 0
16,TTC7A (UniProt Q9ULT0),inactive: 0
17,USP9X (UniProt Q93008),inactive: 0
18,USP1 (UniProt O94782),inactive: 0

# Two records picked at random from those above, as already listed:
row,Target,dose-dependent thermal stabilisation call
16,UBE2I (UniProt P63279),inactive: 0
10,VPS4B (UniProt O75351),inactive: 0
